The results in this text go back to the supplement of paper PMC12595434, “Development of retinoid nuclear receptor pathway antagonists through targeting aldehyde dehydrogenase 1A3” (iScience, 2025).

Sequences of proteins named here, by UniProt entry; tags and fusion partners are left off. A change or cut given only in a name is not applied to a line headed by its entry.
UniProt Q9NY97: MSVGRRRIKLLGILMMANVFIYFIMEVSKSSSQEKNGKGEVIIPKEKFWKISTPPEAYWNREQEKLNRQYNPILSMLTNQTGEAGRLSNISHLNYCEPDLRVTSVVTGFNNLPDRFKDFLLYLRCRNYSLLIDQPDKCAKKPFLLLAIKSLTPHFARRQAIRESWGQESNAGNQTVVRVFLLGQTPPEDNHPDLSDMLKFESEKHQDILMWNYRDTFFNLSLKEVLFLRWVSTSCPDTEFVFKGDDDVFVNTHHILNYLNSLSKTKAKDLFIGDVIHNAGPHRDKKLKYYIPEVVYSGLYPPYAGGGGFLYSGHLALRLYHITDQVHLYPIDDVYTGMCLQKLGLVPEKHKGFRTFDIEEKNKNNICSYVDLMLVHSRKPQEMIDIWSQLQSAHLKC
UniProt Q9NYG2: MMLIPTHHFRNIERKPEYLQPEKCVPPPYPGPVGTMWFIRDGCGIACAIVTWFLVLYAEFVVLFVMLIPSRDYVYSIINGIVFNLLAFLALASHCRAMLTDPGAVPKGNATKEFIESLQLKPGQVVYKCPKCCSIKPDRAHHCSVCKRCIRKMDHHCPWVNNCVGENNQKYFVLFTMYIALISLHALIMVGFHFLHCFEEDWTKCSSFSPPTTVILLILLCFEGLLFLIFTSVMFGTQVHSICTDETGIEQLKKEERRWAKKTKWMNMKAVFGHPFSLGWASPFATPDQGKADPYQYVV
UniProt Q9P287, whole entry: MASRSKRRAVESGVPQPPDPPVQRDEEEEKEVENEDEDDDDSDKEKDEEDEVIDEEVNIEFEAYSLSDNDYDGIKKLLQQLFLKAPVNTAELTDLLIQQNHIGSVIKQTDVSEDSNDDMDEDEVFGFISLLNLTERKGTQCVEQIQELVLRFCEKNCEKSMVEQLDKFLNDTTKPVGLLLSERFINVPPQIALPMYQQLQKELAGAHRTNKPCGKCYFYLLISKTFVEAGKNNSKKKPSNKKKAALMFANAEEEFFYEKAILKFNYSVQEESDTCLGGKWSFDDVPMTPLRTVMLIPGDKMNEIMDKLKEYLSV
UniProt Q9NWS8: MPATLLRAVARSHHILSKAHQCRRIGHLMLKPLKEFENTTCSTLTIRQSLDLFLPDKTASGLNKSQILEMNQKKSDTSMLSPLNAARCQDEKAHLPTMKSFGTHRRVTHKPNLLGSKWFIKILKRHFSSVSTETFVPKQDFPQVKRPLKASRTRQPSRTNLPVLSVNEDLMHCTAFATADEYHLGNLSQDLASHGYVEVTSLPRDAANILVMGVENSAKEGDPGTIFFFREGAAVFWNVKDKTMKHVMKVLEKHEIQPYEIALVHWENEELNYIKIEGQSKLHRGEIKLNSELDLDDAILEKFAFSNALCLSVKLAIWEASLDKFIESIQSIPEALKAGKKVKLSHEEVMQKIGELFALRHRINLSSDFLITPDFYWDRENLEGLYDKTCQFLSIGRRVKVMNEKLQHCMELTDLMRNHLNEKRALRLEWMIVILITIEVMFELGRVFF
UniProt Q9NW81: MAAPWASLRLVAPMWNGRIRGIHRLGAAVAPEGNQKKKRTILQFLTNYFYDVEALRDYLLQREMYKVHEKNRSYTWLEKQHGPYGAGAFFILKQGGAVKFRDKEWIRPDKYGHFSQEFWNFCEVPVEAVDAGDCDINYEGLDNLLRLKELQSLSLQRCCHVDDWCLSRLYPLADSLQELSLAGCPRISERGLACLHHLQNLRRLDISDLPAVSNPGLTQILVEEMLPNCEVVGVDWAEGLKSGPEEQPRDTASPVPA
UniProt Q9P1Z2: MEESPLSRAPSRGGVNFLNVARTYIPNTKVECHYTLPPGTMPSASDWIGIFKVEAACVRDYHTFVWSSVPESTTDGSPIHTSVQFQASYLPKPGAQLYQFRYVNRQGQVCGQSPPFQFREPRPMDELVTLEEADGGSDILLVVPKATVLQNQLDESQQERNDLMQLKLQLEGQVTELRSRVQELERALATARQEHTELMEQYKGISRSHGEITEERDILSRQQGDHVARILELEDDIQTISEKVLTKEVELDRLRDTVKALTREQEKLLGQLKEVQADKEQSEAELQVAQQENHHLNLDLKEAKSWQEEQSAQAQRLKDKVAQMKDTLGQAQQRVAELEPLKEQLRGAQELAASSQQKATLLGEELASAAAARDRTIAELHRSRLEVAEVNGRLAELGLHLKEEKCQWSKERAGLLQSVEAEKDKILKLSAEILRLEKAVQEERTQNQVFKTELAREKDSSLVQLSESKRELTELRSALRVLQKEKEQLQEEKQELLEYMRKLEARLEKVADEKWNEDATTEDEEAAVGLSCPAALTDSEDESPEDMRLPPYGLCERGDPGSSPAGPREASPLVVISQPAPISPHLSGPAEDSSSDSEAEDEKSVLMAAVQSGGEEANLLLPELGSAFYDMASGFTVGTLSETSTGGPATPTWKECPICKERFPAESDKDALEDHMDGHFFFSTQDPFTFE
UniProt Q9NWT1: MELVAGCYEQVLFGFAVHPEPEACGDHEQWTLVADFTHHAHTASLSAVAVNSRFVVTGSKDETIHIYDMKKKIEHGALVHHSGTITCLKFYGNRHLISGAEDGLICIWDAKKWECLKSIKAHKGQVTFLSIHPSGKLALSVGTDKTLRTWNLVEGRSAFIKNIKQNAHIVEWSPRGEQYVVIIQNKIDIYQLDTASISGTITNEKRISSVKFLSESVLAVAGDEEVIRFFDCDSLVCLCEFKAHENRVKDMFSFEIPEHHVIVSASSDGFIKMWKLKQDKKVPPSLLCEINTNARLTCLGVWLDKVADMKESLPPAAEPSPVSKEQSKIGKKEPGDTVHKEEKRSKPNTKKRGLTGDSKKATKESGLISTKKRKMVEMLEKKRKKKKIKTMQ
UniProt Q9NX01: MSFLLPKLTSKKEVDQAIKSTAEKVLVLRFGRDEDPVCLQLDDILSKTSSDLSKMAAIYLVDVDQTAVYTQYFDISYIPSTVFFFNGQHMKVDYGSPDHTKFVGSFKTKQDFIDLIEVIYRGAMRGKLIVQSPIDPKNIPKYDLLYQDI
UniProt Q9NX74: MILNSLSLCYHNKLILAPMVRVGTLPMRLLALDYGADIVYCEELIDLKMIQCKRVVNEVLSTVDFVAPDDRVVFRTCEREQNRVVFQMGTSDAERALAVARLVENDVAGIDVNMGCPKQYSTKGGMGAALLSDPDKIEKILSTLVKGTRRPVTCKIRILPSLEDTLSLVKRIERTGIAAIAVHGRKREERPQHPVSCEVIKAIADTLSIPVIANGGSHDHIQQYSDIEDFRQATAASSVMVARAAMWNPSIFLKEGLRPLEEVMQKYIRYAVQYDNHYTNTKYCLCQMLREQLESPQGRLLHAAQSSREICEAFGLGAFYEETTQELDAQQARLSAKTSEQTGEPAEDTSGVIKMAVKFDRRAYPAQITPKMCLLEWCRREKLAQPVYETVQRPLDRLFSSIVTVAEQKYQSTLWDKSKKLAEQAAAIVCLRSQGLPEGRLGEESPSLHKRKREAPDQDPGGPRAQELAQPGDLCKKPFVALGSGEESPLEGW
UniProt Q9NZN4: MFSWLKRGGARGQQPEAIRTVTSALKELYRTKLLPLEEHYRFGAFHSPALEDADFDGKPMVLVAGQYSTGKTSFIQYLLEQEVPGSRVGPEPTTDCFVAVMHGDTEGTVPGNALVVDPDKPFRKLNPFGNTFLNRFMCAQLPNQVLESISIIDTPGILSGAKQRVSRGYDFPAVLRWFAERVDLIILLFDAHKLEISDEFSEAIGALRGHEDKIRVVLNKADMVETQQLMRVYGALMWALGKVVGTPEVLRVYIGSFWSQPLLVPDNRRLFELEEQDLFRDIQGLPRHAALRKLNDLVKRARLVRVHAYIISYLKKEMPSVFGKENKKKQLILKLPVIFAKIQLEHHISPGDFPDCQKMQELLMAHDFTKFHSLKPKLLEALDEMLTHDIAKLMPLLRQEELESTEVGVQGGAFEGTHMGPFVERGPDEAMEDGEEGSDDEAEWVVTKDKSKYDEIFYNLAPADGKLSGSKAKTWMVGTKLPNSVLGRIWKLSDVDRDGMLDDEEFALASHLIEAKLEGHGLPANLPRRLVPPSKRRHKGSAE
UniProt Q9NXS2: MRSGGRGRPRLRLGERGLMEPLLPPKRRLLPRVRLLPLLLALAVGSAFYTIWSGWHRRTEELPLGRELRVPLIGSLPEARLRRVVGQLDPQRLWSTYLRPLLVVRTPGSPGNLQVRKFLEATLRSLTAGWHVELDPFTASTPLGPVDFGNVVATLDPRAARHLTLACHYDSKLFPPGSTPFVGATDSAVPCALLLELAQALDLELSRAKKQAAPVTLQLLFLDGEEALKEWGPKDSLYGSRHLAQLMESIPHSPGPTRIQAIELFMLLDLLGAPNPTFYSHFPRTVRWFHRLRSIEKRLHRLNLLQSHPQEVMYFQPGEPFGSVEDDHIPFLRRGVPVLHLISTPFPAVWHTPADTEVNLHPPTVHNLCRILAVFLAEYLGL
UniProt Q9NX04: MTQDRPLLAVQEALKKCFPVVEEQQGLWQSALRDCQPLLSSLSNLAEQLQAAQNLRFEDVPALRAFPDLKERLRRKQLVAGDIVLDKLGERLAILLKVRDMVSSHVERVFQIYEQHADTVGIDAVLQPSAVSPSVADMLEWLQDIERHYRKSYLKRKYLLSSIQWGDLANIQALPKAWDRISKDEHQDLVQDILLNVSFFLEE
UniProt Q9UBT7: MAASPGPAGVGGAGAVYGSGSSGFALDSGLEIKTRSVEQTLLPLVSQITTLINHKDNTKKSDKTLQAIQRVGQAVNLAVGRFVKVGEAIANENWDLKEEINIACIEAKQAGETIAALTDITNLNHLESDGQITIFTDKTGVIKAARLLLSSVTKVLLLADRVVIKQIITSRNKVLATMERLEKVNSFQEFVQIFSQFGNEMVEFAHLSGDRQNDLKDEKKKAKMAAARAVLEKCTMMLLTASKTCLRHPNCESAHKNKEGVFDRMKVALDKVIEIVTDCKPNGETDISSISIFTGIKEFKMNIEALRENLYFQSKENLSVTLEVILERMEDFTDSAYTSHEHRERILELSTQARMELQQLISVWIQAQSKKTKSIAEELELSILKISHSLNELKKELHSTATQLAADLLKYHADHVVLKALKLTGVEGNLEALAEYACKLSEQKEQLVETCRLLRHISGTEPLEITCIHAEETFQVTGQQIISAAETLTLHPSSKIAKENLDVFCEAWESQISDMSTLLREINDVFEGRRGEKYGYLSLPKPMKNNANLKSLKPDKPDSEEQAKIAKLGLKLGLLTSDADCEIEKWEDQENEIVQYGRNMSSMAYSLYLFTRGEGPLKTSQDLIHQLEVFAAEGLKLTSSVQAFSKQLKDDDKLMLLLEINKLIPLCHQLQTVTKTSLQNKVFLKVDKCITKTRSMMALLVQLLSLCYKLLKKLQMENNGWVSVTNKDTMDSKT
UniProt Q9UDY8: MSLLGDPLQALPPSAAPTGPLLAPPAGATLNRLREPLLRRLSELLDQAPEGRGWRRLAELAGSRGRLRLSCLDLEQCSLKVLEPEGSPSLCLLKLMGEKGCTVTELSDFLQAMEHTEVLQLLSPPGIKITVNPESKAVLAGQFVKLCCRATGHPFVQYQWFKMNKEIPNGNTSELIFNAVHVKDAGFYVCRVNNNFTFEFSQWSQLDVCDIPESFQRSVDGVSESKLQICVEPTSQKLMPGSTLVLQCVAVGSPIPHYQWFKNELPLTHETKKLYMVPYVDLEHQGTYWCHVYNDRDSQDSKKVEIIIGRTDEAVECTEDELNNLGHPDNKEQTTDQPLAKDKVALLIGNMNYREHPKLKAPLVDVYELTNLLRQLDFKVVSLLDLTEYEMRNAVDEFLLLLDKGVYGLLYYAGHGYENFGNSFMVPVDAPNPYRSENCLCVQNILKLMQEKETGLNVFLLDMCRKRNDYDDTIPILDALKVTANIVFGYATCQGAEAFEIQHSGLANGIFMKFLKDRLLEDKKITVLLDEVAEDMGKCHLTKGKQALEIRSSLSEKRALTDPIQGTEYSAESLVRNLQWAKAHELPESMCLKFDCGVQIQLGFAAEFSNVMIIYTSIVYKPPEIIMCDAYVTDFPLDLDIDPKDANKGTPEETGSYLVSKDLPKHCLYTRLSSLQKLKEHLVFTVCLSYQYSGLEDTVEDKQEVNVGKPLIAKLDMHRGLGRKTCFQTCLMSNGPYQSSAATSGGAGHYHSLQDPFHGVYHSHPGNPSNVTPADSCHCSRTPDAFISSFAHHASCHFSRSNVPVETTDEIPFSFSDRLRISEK
UniProt Q9NWQ8: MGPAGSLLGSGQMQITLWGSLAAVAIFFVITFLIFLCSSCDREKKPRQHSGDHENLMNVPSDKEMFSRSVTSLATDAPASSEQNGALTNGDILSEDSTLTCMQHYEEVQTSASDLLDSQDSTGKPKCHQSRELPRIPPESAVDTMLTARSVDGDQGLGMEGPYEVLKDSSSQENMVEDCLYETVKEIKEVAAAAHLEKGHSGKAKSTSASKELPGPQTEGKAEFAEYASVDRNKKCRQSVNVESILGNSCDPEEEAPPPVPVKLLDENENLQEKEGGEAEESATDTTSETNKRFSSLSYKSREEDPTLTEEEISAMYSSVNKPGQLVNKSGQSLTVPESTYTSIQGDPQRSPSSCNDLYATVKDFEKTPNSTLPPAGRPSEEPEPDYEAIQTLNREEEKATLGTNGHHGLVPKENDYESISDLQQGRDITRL

This is one part of the list. Single values of this set are uncertain.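 Tm was set to 64 °C where no melting was found, and many curves are irregular.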

Compound in the first experiment: CCc1cnccc1C(=O)Nc1cc2c(cc1F)NC(=O)CC2
As to the kind of experiment: melting temperature shift (DMSO Tm minus MBE1-treated Tm) in cellular thermal proteome profiling; higher = less thermal stabilization by MBE1 (negative = stabilized by MBE1). Conditions: A375; MBE1 concentration: 100 nM.
For the target UniProt Q9NY97, the melting temperature shift is -0.691 °C.

Turning to UniProt Q9NYG2, the melting temperature shift came to 0.299 °C.

Consider BCCIP (UniProt Q9P287), for which the melting temperature shift was 0.287 °C.

As to NCDN (UniProt Q9UBB6), the melting temperature shift is 0.887 °C.

For the target UniProt Q9UBG0, the melting temperature shift is -1.09 °C.

CNTLN (UniProt Q9NXG0): the melting temperature shift was 0 °C.

For GAR1 (UniProt Q9NY12), the melting temperature shift was -2.74 °C.

With RMND1 (UniProt Q9NWS8), the melting temperature shift was -0.749 °C.

In the case of UniProt Q9NW81, the melting temperature shift was found to be 0.57 °C.

Turning to CXXC1 (UniProt Q9P0U4), the melting temperature shift was -0.333 °C.

In the case of CALCOCO1 (UniProt Q9P1Z2), the melting temperature shift came to 0.837 °C.

With NKIRAS2 (UniProt Q9NYR9), the melting temperature shift was found to be 2.12 °C.

On to MRPS18A (UniProt Q9NVS2), for which the melting temperature shift turned out to be 0.0672 °C.

In the case of PAK1IP1 (UniProt Q9NWT1), the melting temperature shift was -1.07 °C.

As for UniProt Q9NX01, the melting temperature shift was found to be 0.782 °C.

Regarding NLE1 (UniProt Q9NVX2), the melting temperature shift was -3.85 °C.

Take DUS2 (UniProt Q9NX74): the melting temperature shift was found to be 0.989 °C.

Regarding UniProt Q9NZW5, the melting temperature shift came out at 0.751 °C.

As to EHD2 (UniProt Q9NZN4), the melting temperature shift was -0.189 °C.

For GRHPR (UniProt Q9UBQ7), the melting temperature shift was -0.114 °C.

In the case of MAT2B (UniProt Q9NZL9), the melting temperature shift was -1.44 °C.

Take DHCR7 (UniProt Q9UBM7): the melting temperature shift is -0.107 °C.

On to NCKIPSD (UniProt Q9NZQ3), for which the melting temperature shift is -1.25 °C.

On to UniProt Q9P212, for which the melting temperature shift amounted to 5.94 °C.

Take QPCTL (UniProt Q9NXS2): the melting temperature shift turned out to be 0.0738 °C.

For MARK1 (UniProt Q9P0L2), the melting temperature shift is -0.983 °C.

As to UniProt Q9NX04, the melting temperature shift was 1.34 °C.

As for GLTP (UniProt Q9NZD2), the melting temperature shift was 0.362 °C.

In the case of UniProt Q9NY65, the melting temperature shift turned out to be 1.21 °C.

In the case of CTNNAL1 (UniProt Q9UBT7), the melting temperature shift was -0.79 °C.

Consider MALT1 (UniProt Q9UDY8), for which the melting temperature shift was -1.11 °C.

The experiment is the same for the next values; noted with them: A375; MBE1 concentration: 1 uM.
In the case of UniProt Q9NY97, the melting temperature shift was found to be 0.349 °C.

For the target GMPR2 (UniProt Q9P2T1), the melting temperature shift was -3.15 °C.

Regarding BCCIP (UniProt Q9P287), the melting temperature shift amounted to 0.476 °C.

As for NCDN (UniProt Q9UBB6), the melting temperature shift came to 0.0672 °C.

For the target UniProt Q9UBG0, the melting temperature shift is 0.682 °C.

With CNTLN (UniProt Q9NXG0), the melting temperature shift was determined as 1.75 °C.

Regarding PAG1 (UniProt Q9NWQ8), the melting temperature shift was -2.96 °C.

In the case of RMND1 (UniProt Q9NWS8), the melting temperature shift is -0.11 °C.

With TMEM38B (UniProt Q9NVV0), the melting temperature shift is -1.89 °C.

For the target CALCOCO1 (UniProt Q9P1Z2), the melting temperature shift is -0.421 °C.

Regarding MRPS18A (UniProt Q9NVS2), the melting temperature shift is 1.27 °C.

As for PAK1IP1 (UniProt Q9NWT1), the melting temperature shift was -1.46 °C.

Consider NLE1 (UniProt Q9NVX2), for which the melting temperature shift is -2.94 °C.

Consider DUS2 (UniProt Q9NX74), for which the melting temperature shift is 0.855 °C.

In the case of UniProt Q9NZW5, the melting temperature shift was -0.00611 °C.

Take EHD2 (UniProt Q9NZN4): the melting temperature shift was 0.0672 °C.

As for GRHPR (UniProt Q9UBQ7), the melting temperature shift worked out at 0.0805 °C.

Turning to UniProt Q9P0U3, the melting temperature shift was -0.48 °C.

For the target MAT2B (UniProt Q9NZL9), the melting temperature shift is 0.586 °C.

As to DHCR7 (UniProt Q9UBM7), the melting temperature shift was found to be 0.896 °C.

Take UniProt Q9NW97: the melting temperature shift is -3 °C.

In the case of NCKIPSD (UniProt Q9NZQ3), the melting temperature shift is -0.179 °C.

Turning to UniProt Q9NWT8, the melting temperature shift is -2.34 °C.

For QPCTL (UniProt Q9NXS2), the melting temperature shift was -0.16 °C.

For the target MARK1 (UniProt Q9P0L2), the melting temperature shift is -1.87 °C.

Regarding GLTP (UniProt Q9NZD2), the melting temperature shift came out at 0.49 °C.

As for UniProt Q9NY65, the melting temperature shift was 3.21 °C.

Regarding CTNNAL1 (UniProt Q9UBT7), the melting temperature shift is -0.837 °C.

Consider MALT1 (UniProt Q9UDY8), for which the melting temperature shift is -0.725 °C.
